For at least one compound, name, drawing or mass did not settle the structure.
System: Scytalidium hyalinum
Test: Antifungal Activity Test 2: MIC by broth microdilution method (Alamar Blue)
Assay type: cell-based
Design: unit not given beside the values
Conditions: range of the 4 strains measured
Description: The minimum inhibitory concentration (MIC) was measured by a broth microdilution method. That is, RPMI1640 medium (Sigma-Aldrich) was buffered with 0.165 M morpholine propanesulfonic acid (MOPS, Wako Pure Chemical Industries, Ltd.) to pH 7.0, and a given amount of a solution of the drug in DMSO was added thereto to prepare 2-fold dilution series within the range of 0.00098-4 μg/mL. This was added to a 96-well microplate by 100 μL, a fungal inoculum solution (100 μL, final concentration of fungi to be added: 1.0×10^4 cells/mL) was added, and the mixture was cultured at 35° C. An Alamar Blue reagent was added in advance to the culture medium (final addition concentration: 10%) and, at the time point when the Alamar Blue reagent in the drug-free growth control group changed from blue to red, the culture was discontinued and the absorbance (differential optical density at 570 nm based on 590 nm served as reference) measured. The minimum concentration of the drug that inhibited the growth of the fungus in the growth control group by 80% or more was taken as MIC. The concentration to be MIC (MIC90) in 9 strains out of the 10 strains (90%) measured was determined.
Scytalidium hyalinum strain of clinical isolate available from CBS (Netherlands) was used. […]

SMILES: CCC(C)n1ncn(-c2ccc(N3CCN(c4ccc(OCC5COC(Cn6cncn6)(c6ccc(Cl)cc6Cl)O5)cc4)CC3)cc2)c1=O (stereo not shown) [ITZ, itraconazole]
- MIC range: 0.016->4
